# Screening data, single-dose tests

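Assay of Toxoplasma gondii numbers, read through their beta-galactosidase reporter with a colour substrate. Compounds at 50 µM. Higher reads as fewer parasites (inferred from which compounds were picked for retests). About 18,000 compounds were tested under these conditions; 0.94% (about 170) showed 50% or more at least once.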

Results are given as percent effect.
The record does not define 0% and 100%; most values in the screen are far below 50% and negative numbers occur (in some assays of this library far below -100).
This is an unselected part of the compounds tested.

Compound: O=C1CN(CCC(=O)Nc2cc(Cl)ccc2Cl)CCN1
effect: -1.156%

Compound: COc1ccc(Cl)cc1Cn1cnnc1[S+](C)[O-] (stereo unspecified)
effect: 9.725%

Compound: CC(c1cc(F)ccc1F)N(C)C(=O)CCCN (stereo unspecified)
effect: 9.663%

Compound: CNS(=O)(=O)CC1CCCN1C(=O)c1sccc1C (stereo unspecified)
effect: -4.098%

Compound: Cc1ccc(C)c(S(N)(=O)=O)c1
effect: -6.288%

Compound: CCN1CCC(CNC(=O)c2ccncc2F)C1 (stereo unspecified)
effect: -11.29%

Compound: CC(=O)Nc1ccc(C(=O)NC2CC2)s1
effect: -1.112%

Compound: Cn1nc(C(F)(F)F)c(Cl)c1C(=O)N[C@@H]1CCNC1
effect: -10.72%

Compound: CSCCCC(=O)Nc1ccc(C)c(C(=O)N(C)C)c1
effect: -13.05%

Compound: CCCn1cc(S(=O)(=O)NC(CC)[C@H]2C[C@@H](O)C2)cn1 (stereo partly specified)
effect: 5.395%

Compound: O=C(NCC1CCCO1)c1n[nH]c2c1CCCC2 (stereo unspecified)
effect: 17.55%

Compound: COCC(=O)NCC1(N2CCOCC2)CCCCC1
effect: -3.291%

Compound: O=C(Nc1ccccn1)c1ccc(-n2cnnn2)cc1
effect: -7.303%

Compound: OCCn1nccc1-c1nc(C2CCOC2)no1 (stereo unspecified)
effect: 4.219%

Compound: Cc1noc(C)c1CN1CCC(O)CC1
effect: 1.647%

Compound: CCC1C(=O)NCCN1CCCOC (stereo unspecified)
effect: -4.429%

Compound: CCOc1cc(C(=O)NC)cc(OCC)c1OCC
effect: 5.477%

Compound: CC(=O)Nc1nc(C(=O)NC(C)Cc2ccco2)cs1 (stereo unspecified)
effect: 11.39%

Compound: CCC1CN(CCS(C)(=O)=O)CCN1CCOC (stereo unspecified)
effect: 26.93%

Compound: O=C(NCC(O)c1ccc(F)cc1)Nc1cnns1 (stereo unspecified)
effect: 16.02%

Compound: Cc1noc(CN(C)CCC2CCOCC2)n1
effect: 23.25%

Compound: CCOC(=O)CNC(C)(C)C
effect: -6.39%

Compound: O=S(=O)(NCCNCc1sccc1Cl)c1cccnc1
effect: 4.821%

Compound: OCC1(O)CCCN(CCn2cc(Cl)cn2)CC1 (stereo unspecified)
effect: -11.31%

Compound: Cc1ccc(C(N)=O)cc1OCc1ccccn1
effect: 35.57%

Compound: CC(C)C(C(=O)NCCc1nnc[nH]1)c1ccccc1 (stereo unspecified)
effect: -4.846%

Compound: NC(CCO)c1ccccc1Br (stereo unspecified)
effect: -5.9%

Compound: CCCn1nnnc1NCc1ccc(C)s1
effect: -2.261%

Compound: N#Cc1c(NC(=O)c2ccncc2)sc2c1CCC2
effect: -3.746%

Compound: CC(C)c1ccc(C(=O)N2CCC(O)CC2)cc1
effect: 22.68%

Compound: CCCN(CCOC)CC(=O)N(C)C
effect: 8.072%

Compound: Cc1occc1-c1nnc(SC(C)C(N)=O)o1 (stereo unspecified)
effect: -3.972%

Compound: CCC1CN(CCn2cncn2)CCN1CCOC (stereo unspecified)
effect: 3.403%

Compound: CC1CCCc2nccn21 (stereo unspecified)
effect: -8.861%

Compound: Cc1cnc(CCNC(=O)N(CCO)C2CC2)s1
effect: -0.106%

Compound: Cc1ccc(C(=O)C2CCN(S(C)(=O)=O)CC2)cc1
effect: -20.48%

Compound: COCCC(C)NC(=O)c1cc(O)nc2ccccc12 (stereo unspecified)
effect: -12.97%

Once more, the final 4:

| Compound | effect |
|---|---|
| `CC1CCCc2nccn21` (stereo unspecified) | -8.861% |
| `Cc1cnc(CCNC(=O)N(CCO)C2CC2)s1` | -0.106% |
| `Cc1ccc(C(=O)C2CCN(S(C)(=O)=O)CC2)cc1` | -20.48% |
| `COCCC(C)NC(=O)c1cc(O)nc2ccccc12` (stereo unspecified) | -12.97% |

The values are deposited in ChEMBL (CHEMBL3988442, “University of Dundee, Small-Polar-MMV Screening Library” (2021)).